Measurements reported in article PMC7862700.
Only a part is listed here, and it is no random draw. At the low end of the ranking the order means little.

These sequences were tested against SPI1 (UniProt P17947) (assay: DAPPL (digital affinity profiling via proximity ligation, sequencing)). Details: 10 mM Tris-HCl pH 7.5, 50 mM NaCl, 1 mM DTT, 4% glycerol, room temperature, 30 min; GST-TFs on glutathione beads, 16-mer random dsDNA library, 0.1% …; high values mean tight binding; double strand, one strand shown; scale: fold enrichment (6-mer frequency, TF over GST control).

Row | Sequence | binding signal
1 | GATCGG | 0.439
2 | AAGGCG | 0.663
3 | TCGTAA | 0.911
4 | GCCGGC | 0.818
5 | GGAGTA | 0.349
6 | TGAGTT | 0.414
7 | GCAGGA | 0.751
8 | AGCCAG | 0.443
9 | CCGGGG | 0.792
10 | GGTGAA | 0.741
11 | GAGTAC | 0.521
12 | GGACGT | 0.562
13 | GTGATA | 0.726
14 | GCACAG | 0.776
15 | CCATCG | 0.776
16 | CCGGGC | 0.813
17 | GCGTCG | 0.83
18 | GAGTTT | 0.565
19 | GGCATC | 0.799
20 | GCGCTA | 0.854

Row | Sequence | binding signal
21 | GTAGGT | 0.788
22 | GGACGG | 0.489
23 | AGTCGT | 0.419
24 | TGAAGT | 0.829
25 | CGTGGC | 0.853
26 | GCCGAG | 0.622
27 | CGTGGT | 0.583
28 | TGGGGA | 0.957
29 | GAAGAG | 0.924
30 | GCCATA | 0.952
31 | GCTTGA | 0.806
32 | TGAGCA | 0.748
33 | GGCGTA | 0.656
34 | GACTGG | 0.576
35 | AGGGGG | 0.583
36 | GCGTGG | 0.527
37 | GGGTAG | 0.642
38 | GGGGTT | 0.79
39 | CGCGGG | 0.759
40 | GAGATA | 0.615
